In patent US7094524B2, “Thermally development imaging materials having backside stabilizers” (Eastman Kodak Company, priority 2003, dated 2006) one finds pH data, which are given here for one molecule.

This series in a line: pH of 0.005 molar solution in 15% methanol/85% water. The format is physicochemical. The text has this:
TABLE I also includes vapor pressure (VP) and pKa values for the various backside stabilizers.

For the molecule `C1CN=C2CCCN2C1` [AB-4, 1,5-diazabicyclo[4.3.0]non-5-ene], the pH is given as 11.7.
